Data: patent US20160201132A1, “GENE EXPRESSION BIOMARKERS OF LAQUINIMOD RESPONSIVENESS” (Teva Pharmaceutical Industries Ltd., priority 2013, published 2016)
This continues a long series; more values of the same kind are listed elsewhere.

Test system: PBMC of RRMS patients
Experiment: Gene expression microarray analysis (HG-U133A-2) of PBMC from RRMS patients treated with LAQ, ancillary study to ALLEGRO
Assay type: in vivo, human
Text: The goal of this ancillary study was to characterize gene expression changes and corresponding biological mechanisms induced in PBMC of RRMS patients by LAQ treatment. According to ALLEGRO clinical trial inclusion criteria, 25 patients were randomly assigned to receive LAQ (n=13, age 38.8±2.3 years, female/male ratio: 8/5) or placebo (n=12, age 37.2±3.4 years, female/male ratio: 8/4).
Peripheral blood samples were obtained from RRMS patients at baseline before start of LAQ treatment or placebo, after 0, 1, 6 and 24 month of treatment (visit 0, 1, 6 and 7 according to ALLEGRO clinical trial protocol correspondently) for gene microarray analysis.
Briefly, 1) Peripheral blood mononuclear cells (PBMC) were obtained from RRMS patients that participated in ALLEGRO and were treated daily with 0.6 mg LAQ or placebo. PBMC were subjected for gene expression analysis (HU-133A-2-Affymatrix arrays) at baseline and at 1 and 6 months of LAQ treatment; 2) Data was analyzed by Partek Genomics Solution software. Most informative genes (MIGs) were defined as those that differentiated between groups with p<0.01. Gene functional annotation, enrichment and pathway analysis were performed by Ingenuity software. For each time point, genes that changed in placebo group were excluded from further analysis; and 3) Verification of LAQ related mechanism was performed by Western blot.
PBMC were extracted from 15 ml peripheral blood, separated by Ficoll-Hypaque gradient. Total RNA was extracted using both Trizol (Invitrogen, USA) and Phase-Lock-Gel columns (Eppendorf, Germany) including a DNase digestion step. RNA integrity was assessed by RNA Experion automated electrophoresis system (Bio-Rad Laboratories, Hercules, Calif.).
Probe synthesis using 3 μg total RNA, hybridization, detection, and scanning was performed according to the standard Affymetrix, Inc. USA protocols; cDNA was synthesized using the Two-Cycle cDNA Synthesis Kit (Affymetrix, Inc., USA), and in-vitro transcription performed with the GeneChip IVT Labeling Kit (Affymetrix, Inc., USA). The biotin-labeled IVT-RNA was hybridized to HG-U133A-2 arrays containing 18,400 gene transcripts, each corresponding to 14,500 well-annotated human genes, washed in a GeneChip Fluidics Station 450 (Hewlett Packard, USA, GeneArray-™ scanner G2500A) and scanned according to the manufacturer's protocol (Affymetrix, Inc., USA).
Data analysis was performed on Partek Genomics Solution software (www.partek.com; Partek Incorporated, St. Louis, Mo.). Expression values were computed from raw CEL files by applying the Robust Multi-Chip Average (RMA) background correction algorithm. RMA correction included: 1) values background correction; 2) quintile normalization; 3) log 2 transformation; and 4) median polish summarization. The ANOVA, Repeated Measures and correlation analysis implicated in Partek software ware applied to evaluate LAQ effects. Most informative genes MIGs were defined as those that differentiated between experimental groups with p<0.01. All p-values were calculated for False Discovery Rate (FDR) multiple test correction at p=0.05.
Additionally, significance of individual genes was tested by parametric T-test and non parametric Mann-Whitney test using Bootstrapping approach based on repeated permutations of the data with 5% FDR for multiple testing.
Gene functional annotation, enrichment, and pathway analyses to identify the leading biological pathways that operated under LAQ treatment were performed by Ingenuity Pathways Analysis software (www.ingenuity.com).
ANOVA analysis was used to compare PBMC gene expression after 1, 6 or 24 month of LAQ treatment with baseline gene expression.
For each time point inventors performed analysis source of variation in dataset. (FIG. 1). Age, gender and batch effects were considered as confounders regarding LAQ or Placebo related changes. For each time point genes associated with Placebo effect were evaluated and excluded from further analysis. […]

For `CCN(C(=O)c1c(O)c2c(Cl)cccc2n(C)c1=O)c1ccccc1` [LAQ, 5-chloro-N-ethyl-4-hydroxy-1-methyl-2-oxo-N-phenyl-1,2-dihydroquinoline-3-carboxamide], the “Fold-Change (4.0 vs. 0.0)” value (gene FARP2, six months of treatment) was −1.148, the “Fold-Change (4.0 vs. 0.0)” value (gene FBLN1, after six months of LAQ) was −1.125 and the “Fold-Change (4.0 vs. 0.0)” value (gene FBXO24, six months of treatment) was −1.1555. The “Fold-Change (4.0 vs. 0.0)” value (gene FERMT2, six months of treatment) was −1.156, the “Fold-Change (4.0 vs. 0.0)” value (gene FGA, PBMC, six months of LAQ treatment) was −1.111 and the “Fold-Change (4.0 vs. 0.0)” value (gene FGF8, six months of treatment) was −1.151. For the same molecule, the “Fold-Change (4.0 vs. 0.0)” value (gene FGF17) was −1.187, the “Fold-Change (4.0 vs. 0.0)” value (gene FGF18, after six months of LAQ) was −1.226 and the “Fold-Change (4.0 vs. 0.0)” value (gene FGFR2) was −1.186. For the same molecule, the “Fold-Change (4.0 vs. 0.0)” value (gene FGFR2, after six months of LAQ) was −1.137, the “Fold-Change (4.0 vs. 0.0)” value (gene FGL1, six months of treatment) was −1.1602 and the “Fold-Change (4.0 vs. 0.0)” value (gene FHL5, after six months of LAQ) was −1.132. For the same molecule, the “Fold-Change (4.0 vs. 0.0)” value (gene FICD, after six months of LAQ) was −1.255, the “Fold-Change (4.0 vs. 0.0)” value (gene FIGF, six months of treatment) was −1.161 and the “Fold-Change (4.0 vs. 0.0)” value (gene FKSG2, after six months of LAQ) was −1.27. The “Fold-Change (4.0 vs. 0.0)” value (gene FLG, PBMC, six months of LAQ treatment) was −1.104, the “Fold-Change (4.0 vs. 0.0)” value (gene FLJ11292, after six months of LAQ) was −1.232 and the “Fold-Change (4.0 vs. 0.0)” value (gene FLJ20184, after six months of LAQ) was −1.232. The “Fold-Change (4.0 vs. 0.0)” value (gene FLJ40330, after six months of LAQ) was −1.134, the “Fold-Change (4.0 vs. 0.0)” value (gene FLRT3) was −1.187 and the “Fold-Change (4.0 vs. 0.0)” value (gene FMO1, six months of treatment) was −1.146. For the same molecule, the “Fold-Change (4.0 vs. 0.0)” value (gene FMO6P, after six months of LAQ) was −1.137, the “Fold-Change (4.0 vs. 0.0)” value (gene FOLH1, PBMC, six months of LAQ treatment) was −1.109 and the “Fold-Change (4.0 vs. 0.0)” value (gene FOXD2, after six months of LAQ) was −1.143. The “Fold-Change (4.0 vs. 0.0)” value (gene FOXL1, PBMC, six months of LAQ treatment) was −1.112, the “Fold-Change (4.0 vs. 0.0)” value (gene FOXP3) was −1.193 and the “Fold-Change (4.0 vs. 0.0)” value (gene FRMD4B, six months of treatment) was −1.1607. The “Fold-Change (4.0 vs. 0.0)” value (gene FRZB) was −1.1881, the “Fold-Change (4.0 vs. 0.0)” value (gene FSTL1, after six months of LAQ) was −1.66 and the “Fold-Change (4.0 vs. 0.0)” value (gene FUCA1, PBMC, six months of LAQ treatment) was 1.673. For the same molecule, the “Fold-Change (4.0 vs. 0.0)” value (gene FURIN, after six months of LAQ) was −1.235, the “Fold-Change (4.0 vs. 0.0)” value (gene FUT2, after six months of LAQ) was −1.225 and the “Fold-Change (4.0 vs. 0.0)” value (gene FUT3, after six months of LAQ) was −1.345. For the same molecule, the “Fold-Change (4.0 vs. 0.0)” value (gene FUT6, after six months of LAQ) was −1.126, the “Fold-Change (4.0 vs. 0.0)” value (gene FZR1, after six months of LAQ) was −1.269 and the “Fold-Change (4.0 vs. 0.0)” value (gene G6PC, after six months of LAQ) was −1.131. For the same molecule, the “Fold-Change (4.0 vs. 0.0)” value (gene GAB1, after six months of LAQ) was −1.138, the “Fold-Change (4.0 vs. 0.0)” value (gene GABBR2, after six months of LAQ) was −1.1332 and the “Fold-Change (4.0 vs. 0.0)” value (gene GABRR1, PBMC, six months of LAQ treatment) was −1.09. For the same molecule, the “Fold-Change (4.0 vs. 0.0)” value (gene GART, after six months of LAQ) was −1.129, the “Fold-Change (4.0 vs. 0.0)” value (gene GC, after six months of LAQ) was −1.128 and the “Fold-Change (4.0 vs. 0.0)” value (gene GCK, six months of treatment) was −1.144. For the same molecule, the “Fold-Change (4.0 vs. 0.0)” value (gene GDPD2, six months of treatment) was −1.15, the “Fold-Change (4.0 vs. 0.0)” value (gene GEM, after six months of LAQ) was −1.402 and the “Fold-Change (4.0 vs. 0.0)” value (gene GGA2, six months of treatment) was −1.158. The “Fold-Change (4.0 vs. 0.0)” value (gene GH2, after six months of LAQ) was −1.135, the “Fold-Change (4.0 vs. 0.0)” value (gene GJA3, six months of treatment) was −1.144 and the “Fold-Change (4.0 vs. 0.0)” value (gene GJA5, six months of treatment) was −1.144. For the same molecule, the “Fold-Change (4.0 vs. 0.0)” value (gene GJA9, after six months of LAQ) was −1.143, the “Fold-Change (4.0 vs. 0.0)” value (gene GJB1) was −1.19 and the “Fold-Change (4.0 vs. 0.0)” value (gene GJB4) was −1.192. The “Fold-Change (4.0 vs. 0.0)” value (gene GJC2, six months of treatment) was −1.151, the “Fold-Change (4.0 vs. 0.0)” value (gene GK, after six months of LAQ) was −1.267 and the “Fold-Change (4.0 vs. 0.0)” value (gene GLI2, after six months of LAQ) was −1.143. For the same molecule, the “Fold-Change (4.0 vs. 0.0)” value (gene GLP1R) was −1.1849, the “Fold-Change (4.0 vs. 0.0)” value (gene GLP1R, after six months of LAQ) was −1.269 and the “Fold-Change (4.0 vs. 0.0)” value (gene GLP1R, six months of treatment) was −1.148. The “Fold-Change (4.0 vs. 0.0)” value (gene GLRA2, six months of treatment) was −1.15, the “Fold-Change (4.0 vs. 0.0)” value (gene GLYR1) was −1.186 and the “Fold-Change (4.0 vs. 0.0)” value (gene GNA12, after six months of LAQ) was −1.2511. For the same molecule, the “Fold-Change (4.0 vs. 0.0)” value (gene GNAT1, after six months of LAQ) was −1.235, the “Fold-Change (4.0 vs. 0.0)” value (gene GNAT1, six months of treatment) was −1.16 and the “Fold-Change (4.0 vs. 0.0)” value (gene GPR17, PBMC, six months of LAQ treatment) was −1.112. For the same molecule, the “Fold-Change (4.0 vs. 0.0)” value (gene GPR20, after six months of LAQ) was −1.23, the “Fold-Change (4.0 vs. 0.0)” value (gene GPR32, six months of treatment) was −1.156 and the “Fold-Change (4.0 vs. 0.0)” value (gene GPR52, after six months of LAQ) was −1.234. For the same molecule, the “Fold-Change (4.0 vs. 0.0)” value (gene GPR63, six months of treatment) was −1.154, the “Fold-Change (4.0 vs. 0.0)” value (gene GPR64, after six months of LAQ) was −1.13 and the “Fold-Change (4.0 vs. 0.0)” value (gene GPR88, PBMC, six months of LAQ treatment) was −1.1216. The “Fold-Change (4.0 vs. 0.0)” value (gene GPR98, PBMC, six months of LAQ treatment) was −1.118, the “Fold-Change (4.0 vs. 0.0)” value (gene GPR107, after six months of LAQ) was −1.232 and the “Fold-Change (4.0 vs. 0.0)” value (gene GPR176) was −1.177. For the same molecule, the “Fold-Change (4.0 vs. 0.0)” value (gene GRHL2, six months of treatment) was −1.156, the “Fold-Change (4.0 vs. 0.0)” value (gene GRM1, PBMC, six months of LAQ treatment) was −1.111 and the “Fold-Change (4.0 vs. 0.0)” value (gene GSC2, after six months of LAQ) was −1.142. For the same molecule, the “Fold-Change (4.0 vs. 0.0)” value (gene GSTA3, PBMC, six months of LAQ treatment) was −1.116, the “Fold-Change (4.0 vs. 0.0)” value (gene GUCA2A, six months of treatment) was −1.155 and the “Fold-Change (4.0 vs. 0.0)” value (gene GYG2, after six months of LAQ) was −1.142. For the same molecule, the “Fold-Change (4.0 vs. 0.0)” value (gene HAB1) was −1.177, the “Fold-Change (4.0 vs. 0.0)” value (gene HAMP, after six months of LAQ) was −1.2333 and the “Fold-Change (4.0 vs. 0.0)” value (gene HAPLN1, after six months of LAQ) was −1.137. The “Fold-Change (4.0 vs. 0.0)” value (gene HAPLN2) was −1.191.
